Some of these results come from one statement about several compounds together. For at least one compound, name, drawing or mass did not settle the structure.
Key:
MRSA-HR = experiment: Antimicrobial activity, MIC by agar plate dilution method against MRSA-HR; type: cell-based, methicillin resistant Staphylococcus aureus
Experimental: (§1) The minimal inhibitory concentration (MIC, μg/mL) against MRSAs (MRSA-HR and MRSA-LR) were measured for typical comounds of novel aminoglycoside antibiotic derivatives described in the Examples (Example 1, Example 2, Example 9, Example 13, Example 18, Example 24, Example 44, Example 45, Example 48, Example 49, Example 51, Example 52, Example 53, Example 54, and Example 76) by an agar plate dilution method based on the method based on the JAPANESE SOCIETY OF CHEMOTHERAPY. As a result, the MIC value of the compounds described in the Examples was not more than 8 against MRSA-HR and not more than 4 against MRSA-LR. The same test was carried out for arbekacin described in Japanese Patent Laid-Open No. 164696/1980.

MRSA-LR = experiment: Antimicrobial activity, MIC by agar plate dilution method against MRSA-LR; type: cell-based, methicillin resistant Staphylococcus aureus
Experimental: as §1

P. aeruginosa PAO1 = experiment: Antimicrobial activity, MIC against P. aeruginosa PAO1; type: cell-based

NCC1C=CC(N)C(OC2C(N)CC(NC(=O)[C@@H](O)CN)C(OC3OC(CO)C(O)C(N)C3O)C2O)O1 (stereo partly drawn) [Example 49, 1-N-[(S)-(3-Amino-2-hydroxypropanoyl)]-3′,4′-didehydro-5-epidibekacin]
minimal inhibitory concentration (MIC) against MRSA-HR (MRSA-HR): not more than 8 μg/mL | minimal inhibitory concentration (MIC) against MRSA-LR (MRSA-LR): not more than 4 μg/mL | minimal inhibitory concentration (MIC) against P. aeruginosa PAO1 (P. aeruginosa PAO1): not more than 4 μg/mL
